Measured values published in paper PMC11653647.
Results are given in words; binding and its absence hold for the method and conditions named. In cells and extracts the contact can be indirect. Some entries that bind do so weakly or less than the wild type. For part of these data: Where a sequence is shown, tags or fusion partners need not be part of it. Values belong to the substance of their own block, whether it stands above or below them.

Protein sequences, listed by entry. Tags and fused reporters are not part of them. Lines headed by an entry give the natural chain unless they say otherwise; changes in a name come on top.
UniProt O14744: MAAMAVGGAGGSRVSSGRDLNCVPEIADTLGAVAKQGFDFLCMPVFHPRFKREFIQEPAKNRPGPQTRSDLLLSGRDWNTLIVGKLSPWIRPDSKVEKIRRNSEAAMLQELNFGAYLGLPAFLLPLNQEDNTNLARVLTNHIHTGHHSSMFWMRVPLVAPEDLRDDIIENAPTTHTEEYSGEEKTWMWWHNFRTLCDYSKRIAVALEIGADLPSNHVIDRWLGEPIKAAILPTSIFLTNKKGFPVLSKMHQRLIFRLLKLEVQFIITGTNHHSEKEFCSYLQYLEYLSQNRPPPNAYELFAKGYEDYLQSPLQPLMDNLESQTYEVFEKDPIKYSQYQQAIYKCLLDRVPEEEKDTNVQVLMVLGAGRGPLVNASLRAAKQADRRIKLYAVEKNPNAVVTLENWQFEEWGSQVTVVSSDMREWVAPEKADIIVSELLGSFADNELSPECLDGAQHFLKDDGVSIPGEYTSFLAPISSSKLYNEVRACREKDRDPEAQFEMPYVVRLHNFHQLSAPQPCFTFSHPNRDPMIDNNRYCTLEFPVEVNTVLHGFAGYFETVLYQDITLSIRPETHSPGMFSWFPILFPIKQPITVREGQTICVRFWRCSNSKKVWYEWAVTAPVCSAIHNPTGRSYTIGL
UniProt Q9BQA1: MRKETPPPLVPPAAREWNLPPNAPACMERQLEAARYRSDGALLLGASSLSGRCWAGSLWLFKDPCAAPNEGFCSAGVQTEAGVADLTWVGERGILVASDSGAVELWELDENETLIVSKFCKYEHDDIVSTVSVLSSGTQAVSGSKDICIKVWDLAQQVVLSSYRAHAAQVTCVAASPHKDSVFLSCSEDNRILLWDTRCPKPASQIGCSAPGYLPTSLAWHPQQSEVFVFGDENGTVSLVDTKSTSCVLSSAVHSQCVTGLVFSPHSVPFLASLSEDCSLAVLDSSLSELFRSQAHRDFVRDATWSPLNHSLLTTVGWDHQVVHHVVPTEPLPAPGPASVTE
UniProt P31749: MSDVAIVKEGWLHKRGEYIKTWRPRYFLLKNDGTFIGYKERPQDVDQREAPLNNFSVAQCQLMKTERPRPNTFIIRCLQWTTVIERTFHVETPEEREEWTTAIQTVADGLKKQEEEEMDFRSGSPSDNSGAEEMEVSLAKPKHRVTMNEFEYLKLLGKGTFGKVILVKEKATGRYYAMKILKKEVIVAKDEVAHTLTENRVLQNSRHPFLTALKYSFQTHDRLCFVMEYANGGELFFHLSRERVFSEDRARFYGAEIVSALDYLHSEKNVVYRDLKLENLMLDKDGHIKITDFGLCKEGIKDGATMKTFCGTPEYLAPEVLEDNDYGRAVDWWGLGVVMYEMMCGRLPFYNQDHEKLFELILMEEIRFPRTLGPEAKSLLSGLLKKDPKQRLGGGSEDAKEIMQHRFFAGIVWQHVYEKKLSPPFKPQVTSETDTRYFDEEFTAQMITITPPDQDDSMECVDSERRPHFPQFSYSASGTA

Columns and labels:
[1] = target: T1, C-terminal Flag-tagged TBL2 (transducin beta-like 2) (UniProt Q9Y4P3); experiment: co-IP; 293T cells transfected with Flag-TBL2, HA-PRMT5 and MYC-WDR77 constructs; Flag or HA affinity agarose
T1 sequence: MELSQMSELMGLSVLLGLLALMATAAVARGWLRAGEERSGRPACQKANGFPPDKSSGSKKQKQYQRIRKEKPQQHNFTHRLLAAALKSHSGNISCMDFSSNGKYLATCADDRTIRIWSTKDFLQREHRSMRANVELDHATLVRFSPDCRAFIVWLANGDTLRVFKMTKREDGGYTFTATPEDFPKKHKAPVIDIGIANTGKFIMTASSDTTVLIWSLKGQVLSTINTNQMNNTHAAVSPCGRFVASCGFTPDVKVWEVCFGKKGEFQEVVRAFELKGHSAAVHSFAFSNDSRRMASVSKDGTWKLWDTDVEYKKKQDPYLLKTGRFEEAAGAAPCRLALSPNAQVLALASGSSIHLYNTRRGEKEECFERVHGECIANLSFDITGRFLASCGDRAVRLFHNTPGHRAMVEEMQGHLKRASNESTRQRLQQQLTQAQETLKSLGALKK

[2] = target: T2, TBL2 (transducin beta-like 2), endogenous (human (endogenous in MDA-MB-231)) (UniProt Q9Y4P3); experiment: proximity ligation; Duolink in situ PLA on fixed MDA-MB-231 cells with anti-TBL2, anti-PRMT5 and anti-WDR77 antibodies
T2 sequence: T1 sequence

[3] = target: T2, TBL2 (transducin beta-like 2), endogenous (human (endogenous in MDA-MB-231)); experiment: co-IP; endogenous proteins in MDA-MB-231 lysate; lysis buffer 150 mM NaCl, 10 mM HEPES pH 7.4, 1% NP-40; reciprocal IPs; in some panels TBL2 silenced or Flag-TBL2 overexpressed, WDR77 knocked down or overexpressed
[4] = target: T3, GST-tagged full-length TBL2 (UniProt Q9Y4P3); experiment: pull-down; GST pull-down with purified GST and GST-tagged full-length or deletion mutants of TBL2 from HEK293T cells; source of PRMT5 and WDR77 not stated
T3 sequence: T1 sequence

[5] = target: PRMT5 (protein arginine methyltransferase 5), endogenous (human (endogenous in MDA-MB-231 and 293T)) (UniProt O14744); experiment: co-IP; endogenous proteins in MDA-MB-231 lysate; lysis buffer 150 mM NaCl, 10 mM HEPES pH 7.4, 1% NP-40; reciprocal IPs; in some panels TBL2 silenced or Flag-TBL2 overexpressed, WDR77 knocked down or overexpressed

binding [2]: binds
binding [3]: binds
Substance: WDR77 (methylosome protein 50), endogenous (from UniProt Q9BQA1 1-342)

binding [5]: binds
Substance: AKT1, endogenous (from UniProt P31749 1-480) (enzyme)

Further lines, the substance ahead of its results:

Substance: HA-PRMT5 (from UniProt O14744 1-637) (enzyme)
binding [1]: binds

Substance: PRMT5 (protein arginine methyltransferase 5), endogenous (from UniProt O14744 1-637) (enzyme)
binding [2]: binds
binding [3]: binds

Substance: MYC-WDR77 (from UniProt Q9BQA1 1-342)
binding [1]: binds

Substance: PRMT5 (as used in the GST pull-down and in Figures S3B,C) (from UniProt O14744 1-637) (enzyme)
binding [4]: binds

Substance: WDR77 (as used in the GST pull-down and in Figures S3B,C) (from UniProt Q9BQA1 1-342)
binding [4]: binds
